# Out of some 320,000 compounds screened, about 2,100 (0.66%) were called active. Inconclusive results, whose numbers are uncertain, are shown with a selection of clear calls. The call rests on the fitted dose curve; in most records, active means well fitted inhibition curve with a large enough effect in the signal ratio, with a control signal flat (not every such curve was filed as active); inconclusive means small, poorly fitted or top-dose-only effect, or effect the other way, or a change in a side signal; inactive means flat fitted curve, though single readings scatter; the % refers to the signal ratio. Where the call is inconclusive, the potency comes from a doubtful curve fit.
# Assay: qHTS Assay for Lipid Storage Modulators in Drosophila S3 Cells
# Settings: BODIPY lipid droplet fluorescence, 18-24 h, cells fed with added oleic acid; lipid storage change, negative = inhibition: at 46.1 µM (top of the series) unless noted
# How it was run: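 Drosophila S3 cells loaded with oleic acid (400 uM, as added) and compounds at several concentrations; lipid droplets imaged by 488-nm laser-scanning cytometry, 500–530 nm intensity and object ratio to cell channel. Percent activity normalized to 20 uM Triacsin C.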
# On the % scale 0 is the no-effect control and ±100 the full control effect; potency means the concentration at half of the fitted maximal effect.
Compound,"lipid storage change, negative = inhibition",Potency
CCN(CC)c1ccc(/C=N/Nc2nn[nH]n2)cc1,inconclusive: 13%,–
O=c1c2ccccc2oc2cc(OCc3ccc(F)cc3)cc(O)c12,inconclusive: 78.9%,–
COc1ccc(S(=O)(=O)N2CCN(C(=O)CCC3CCCC3)CC2)cc1,–,"inconclusive: 6.51 µM [activator, single point]"
Cc1cc(C)c(NC(=O)c2ccc(CN3CCc4ccccc4C3)cc2)c(C)c1,inconclusive: 254%,–
CC1(C)Cc2c(c(N3CCOCC3)nc3snc(Br)c23)CO1,inconclusive: 40.6%,–
CC[C@@H](C)[C@@H](C(=O)N1CCN(C(=O)OC(C)(C)C)CC1)n1cc(CCC(=O)O)nn1,–,"inconclusive: 3.26 µM [falling, full curve]"
O=[N+]([O-])c1ccc2c(c1)nc1n2CCN(CC2CCCO2)C1 (stereo not given),inconclusive: 20.4%,–
Cc1ccc(CCNC(=O)C2CCN(S(=O)(=O)c3cccc4cccnc34)CC2)cc1,–,"inconclusive: 6.51 µM [activator, single point]"
CC(NS(=O)(=O)c1ccccc1)C(N)=O (stereo not given),inconclusive: -0.205%,–
CCOC(=O)C1CCCN(C(=O)c2cc(-c3ccc(C)cc3)on2)C1 (stereo not given),–,"inconclusive: 16.4 µM [falling, single point]"
CC(=O)N1CCN(C(=O)Cn2c(=O)oc3ccccc32)CC1,inconclusive: 7.16%,–
COc1ccc(OC)c(C(C)NC(=O)C23CC4CC(CC(C4)C2)C3)c1 (stereo not given),–,"inconclusive: 0.0046 µM [falling, full curve, poor fit]"
COc1cc(C(=O)NCCc2ccc(F)cc2)c([N+](=O)[O-])cc1OC,inactive: -7.12%,–
CC(C)C(c1nnnn1Cc1ccco1)N1CCN(c2cccc(Cl)c2)CC1 (stereo not given),inconclusive: 13.6%,–
COc1ccc2c(c1)CCN1C2CCN2C(=O)CCC21 (stereo not given),inconclusive: -12.7%,–
Cc1ccc(NC(=O)CN(C)C(=O)c2cc(C)on2)cc1,inconclusive: -55%,–
Cc1ccc(C(=O)COC(=O)CCS(=O)(=O)c2ccccc2)cc1[N+](=O)[O-],–,"inconclusive: 0.164 µM [activator, full curve, poor fit]"
CCOC(=O)C1(Nc2nccs2)Sc2ccccc2NC1=O (stereo not given),inconclusive: -8.38%,–
CCOc1cc(/C=C2\C(=N)N3N=C(C)SC3=NC2=O)ccc1OCCOc1cccc(OC)c1,inconclusive: 8.43%,–
N/C(Cc1ccc(Cl)cc1Cl)=N\OC(=O)c1ccccc1,–,"inconclusive: 4.61 µM [falling, full curve, poor fit]"
Cc1ccc(C(=O)N/C(=C\c2ccc(-c3ccccc3[N+](=O)[O-])o2)C(=O)NCCCN2CCOCC2)cc1,inconclusive: -6.65%,–
COc1ccc([C@@H]2[C@@H]3C(=O)N(C(C)(C)C)C(=O)[C@@H]3[C@]3(C)C(=O)N(c4cccc(C)c4)C(=O)N23)cc1,inconclusive: 21.3%,–
NS(=O)(=O)c1ccc(CNS(=O)(=O)Cc2ccc(Cl)cc2)cc1,–,"inconclusive: 6.51 µM [falling, single point]"
COC(=O)CSC1=C(C#N)C(c2cccc(F)c2)CC(=O)N1 (stereo not given),inconclusive: 118%,–
CCc1nnc(NS(=O)(=O)c2ccc(NC(=S)NC(=O)/C=C/c3ccc(C(C)C)cc3)cc2)s1,inconclusive: 23.4%,–

Compound,"lipid storage change, negative = inhibition",Potency
CC(C)(C)C(=O)CSc1ncnc2sc3c(c12)CCC3,–,"inconclusive: 0.92 µM [activator, full curve, poor fit]"
O=C(c1ccncc1)N1CCN(S(=O)(=O)c2cccc(C(F)(F)F)c2)CC1,inconclusive: -45.7%,–
CN(C)c1ccc(S(=O)(=O)NCC(=O)NCc2ccccc2)cc1[N+](=O)[O-],inactive: 24.8%,–
Cc1nnn(C23CC4CC(CC(CC(=O)Nc5ccc(C)c(C)c5)(C4)C2)C3)n1,inconclusive: 8.57%,–
COc1ccc(N2CCN(C(=O)COC(=O)c3oc4ccccc4c3C)CC2)cc1,inconclusive: -75.5%,–
CCOC(=O)C1CCCN(C(=O)CSc2ccc(NC(C)=O)cc2)C1 (stereo not given),inconclusive: 8.98%,–
O=C(COC(=O)c1cccc([N+](=O)[O-])c1)NCC1CCCO1 (stereo not given),inconclusive: 6.98%,–
O=C(N/N=C/c1ccc(OCC(=O)N2CCOCC2)cc1)c1ccccc1Cl,inconclusive: -30.3%,–
CC1CCCCC1NC(=O)c1ccc2c(c1)OCCO2 (stereo not given),inconclusive: 6.32%,–
CCc1n[nH]c(=S)n1/N=C/c1c(C)nn(-c2ccccc2)c1Cl,inconclusive: -18.9%,–
COc1ccc(S(=O)(=O)NCc2ccncc2)cc1NC(=O)c1ccccc1C,inconclusive,–
COc1ccc(-c2nc3ccccn3c2C=O)cc1,inconclusive: -2.68%,–
Cc1ccc(N2C(=O)c3ccccc3NC2C(C)Cc2ccc3c(c2)OCO3)cc1 (stereo not given),inconclusive: 1.92%,–
CC1(C)CC(=O)C(C=NCCN2CCN(C(=O)CC3CCCC3)CC2)=C(O)C1,–,"inconclusive: 18.4 µM [falling, single point]"
CC1CCCC(C)N1CC(O)COc1c(F)cc(Br)cc1F (stereo not given),inconclusive: -103%,–
CC1(C(=O)N2CCC(CO)(Cc3cccc(C(F)(F)F)c3)CC2)CC1,inconclusive: -31.5%,–
Cc1ccc(N(CC(O)CN2CCCC2)S(=O)(=O)c2ccccc2)cc1 (stereo not given),inconclusive: -9.38%,–
CCOC(=O)c1nnn(-c2nonc2N)c1-c1ccc(C)cc1,inconclusive: -6.04%,–
COc1cccc(-c2cc(C(=O)O)no2)c1,inconclusive: -19%,–
CC(C)(C)c1ccc(C2(C)NC(=O)N(CC(=O)NCc3cccs3)C2=O)cc1 (stereo not given),–,active: 5.17 µM
Cc1c(C(=O)NCc2nnc(-c3ccccc3)o2)oc2c(F)cccc12,–,"inconclusive: 2.91 µM [falling, single point]"
O=C1C=C(c2ccc(-c3ccccc3)cc2)C[C@@H](c2ccc3c(c2)OCO3)C1,inconclusive: 9.93%,–
CCC(C(=O)OCC(=O)Nc1cccc(S(=O)(=O)NC2=NCCCCC2)c1)c1ccccc1 (stereo not given),inconclusive: -13.9%,–
Cc1ccc(OCC(=O)Nc2c(C)ccc3nsnc23)cc1,inconclusive: 16.2%,–
O=C(CSc1ccc(-c2nc3ccccc3[nH]2)cn1)Nc1ccc(S(=O)(=O)N2CCCC2)cc1,–,"inconclusive: 18.4 µM [falling, single point]"

# Entries listed so far containing a thiophene ring, fused or not (2):
Compound,"lipid storage change, negative = inhibition",Potency
CC(C)(C)C(=O)CSc1ncnc2sc3c(c12)CCC3,–,"inconclusive: 0.92 µM [activator, full curve, poor fit]"
CC(C)(C)c1ccc(C2(C)NC(=O)N(CC(=O)NCc3cccs3)C2=O)cc1 (stereo not given),–,active: 5.17 µM

# Source: PubChem BioAssay AID2685 (National Center for Advancing Translational Sciences (NCATS), 2010)
